Measured values: US7067486B2, “Acetylcholinesterase-derived peptides and uses thereof” (priority 1999, dated 2006)
Part of at least one peptide drawing is inferred or uncertain, most often the ends. Where no end group is shown, it is not given here.

Legend:
[1] = tested on: developing mouse brain; experiment: BrdU labeling in developing brain after injection of pregnant mouse; type: in vivo
Excerpt: After 1 hr the embryo was isolated and fixed.
Embryonic neuroepithelial cells have one of two fates: (1) to continue proliferation and migration up and down from the ventricular zone up to the cortical plate, or (2) to quit the proliferative cycle and initiate terminal differentiation. The balance between these two processes determines the number of proliferating neuronal progenitors as well as the thickness of the cortical plate where post-mitotic neurons accumulate (see scheme at FIG. 10).

[2] = tested on: FVB/N adult mice; experiment: Biochemical and physiological male fertility correlates after ARP injection; type: in vivo, mouse
Excerpt: Culture Analyses: Twenty-four hr liquid cultures served for cytochemical staining, in situ hybridization, and cell proliferation assay by 5-bromo-2′-deoxy-Uridine (BrdU) incorporation [Grisaru et al. (1999b) id ibid.]. Twenty-eight day liquid cultures were sampled every 6–8 days for viable cell counting (using trypan blue dye exclusion), cell phenotyping (CD34^+, CD33^+ and CD41^+ quantification using flow cytometry, with CD34-PE, CD33-FITC (Immunotech/Coulter, Hialeah, Fla.), CD41-FITC (Immunoquality Products, Groningen, Netherlands) and CD45-FITC monoclonal antibodies), and growth of progenitor colony (granulocyte-macrophage and megakaryocytic), using previously described techniques (Pick et al. (1998) id ibid.). Cytochemical Staining: Staining of AChE activity was essentially as detailed elsewhere [Grisaru et al. (1999b) id ibid], on non-fixed liquid cultures following 300×g centrifugation on collagen-coated cover slips placed on the bottom of the culture well, in the presence of 10^−5 M iso-OMPA (ISO) or BW284C51 (BW), selective inhibitors of BuChE and AChE, respectively [see also Keymer et al.(1999) Eur. J. Neurosci. 11, 1049–57]. Nuclear staining w with 4′,6-diamidino-2- phenylindole [DAPI, see e.g., Peterson et al. (1999) Genetics 152, 427–439]. Animals and Tissue Collection: Male FVB/N mice (2–6 months old) were sacrificed 24 hr following 4 successive days of a forced swim session as detailed [Kaufer et al. (1998) id ibid.], or a single injection of ARP (34 nmol/kg weight), or phosphate buffer (PB) for control. ARP, a 26 amino acid residue peptide synthesized according to the C-terminal sequence of human AChE-R [Grisaru et al. (1999b) id ibid.] was HPLC purified and mass-spectrometry analysed for purity. Control naïve mice and hAChE-R transgenics were sacrificed with no prior treatment. Blood samples were allowed to clot 1 hr at room temperature and overnight at 4° C., followed by centrifugation and serum collection. Testes and seminal vesicles were excised and weighed, fixed in 4% paraformaldehyde or Bouin's fixative for histological staining or kept at −70° C. for protein extraction. Sperm cells were collected from one cauda epididymis shredded in 1 ml saline. Evaluation of Serum Corticosterone Levels: concentrations were determined by radioimmunoassay.
Epididymal sperm motility was assessed by visually determining percent motile sperm. Sperm concentration was measured using the Makler chamber (company, city, state).
Detection of the AChE core protein and/or its variant C-terminal peptides was performed on 7 μm thick paraffin embedded testis sections with either anti-ASP (C-16; Santa Cruz Biotechnology, Santa Cruz, Calif.) or anti-ARP polyclonal antibodies [Sternfeld et al. (2000) id ibid.]. PCNA was detected using a dedicated staining kit (Zymed Laboratories, San-Francisco, Calif.); nuclear staining and counterstaining was with DAPI and hematoxylin, respectively (Sigma, St. Louis Mo.).
To determine the in vivo capacity of ARP to affect different biochemical and physiological male fertility properties, the effect of injection of ARP or chronic expression of AChE-R (AChE-R transgenic mice) on different parameters was examined.

[3] = tested on: GM and MK progenitors; experiment: Progenitor colony growth (GM and MK) in second expansion phase; type: cell-based, human; conditions: cultures previously treated with early acting cytokines, with or without ARP; peak by 3 weeks
[4] = 24-hr post i.p. injection of 34 nmol/Kg ARP, FVB/N adult male mice
[5] = 24-hr post i.p. injection of 34 nmol/Kg ARP, testicular tubular sections

GMQGPAGSGWEEGSGSPPGVTPLFSP [ARP]
thickness of cortical layer of post-mitotic neurons ([1]; ARP 0.1 mg/Kg or AS3 ODN 2 nM into pregnant mouse): reducing the thickness | neuronal proliferation (BrdU labeled nuclei) in embryonic brain ([1]; peptide 0.1 mg/Kg into pregnant mouse, BrdU 24 hr later): enhances neuronal proliferation | AChE activity [2, 4]: 0.3 ± 0.06 nmol ATCh/min/mg prot. | blood corticosterone [2, 4]: 58.1 ± 4.1 ng/mL | PCNA positive cells/tubule perimeter [2, 5]: 28 ± 0.005 no./pixles | anti-ARP area immuno stained/tubule perimeter [2, 5]: 1.3 ± 0.5 pixles | blood corticosterone levels compared with FVB/N mice or AChE-R transgenics ([2]; 24 hours following injection of 85 μg/kg ARP): doubled | anti-ARP labeling of mature spermatids (confocal) ([2]; single ARP injection, limited to spermatid heads): clear intracellular punctuated labeling | numbers of GM and MK colonies in second expansion phase [3]: essentially the same
